Assay results: PubChem BioAssay AID248 (DTP/NCI, 2004)
The list does not hold the whole screen: it is rich in T/C values a quarter to a half above the control, in often repeated tests (any T/C) and in doses without a T/C. Other doses and runs of a compound stand elsewhere. T/C gives the treated animals as a percentage of the vehicle group. Some entries give survivors of the animals treated and no T/C: the source files T/C as zero there, which appears to mark a toxic dose or a test without result, not a measured value. Some doses without a T/C left all or most animals alive at the check, yet need not have been tolerated: the source hardly ever lists a survival T/C far under the control, and the zero likely stands for such cases as well. Counts of survivors are from the toxicity check (mostly the fifth day) where no day follows; animals may have died later. Schedules are NCI's codes, read here as Q, the interval in days (D) or hours (H), X, the number of doses. Some entries hold several experiments; the results are listed from low to high. Some schedule codes hold Z or #, which are not explained here. Where survival is the endpoint, the PubChem record calls one and a half times the control and up active, and a quarter to a half above the control has no call in these data; cut-offs in other NCI protocols can differ. Brackets with × count equal records among those shown.

Test system: L1210 leukemia ip in BDF1 mice, survival T/C
Test: NCI In Vivo Anticancer Drug Screen. Data for tumor model L1210 Leukemia (intraperitoneal) in B6D2F1 (BDF1) mice
Conditions: T/C endpoint: mean survival time, higher T/C = longer survival

COC1=C(N)C(=O)c2nc(-c3nc(C(=O)O)c(C)c(-c4ccc(OC)c(OC)c4O)c3N)ccc2C1=O
survivor count (dose: 0.1 mg/kg/injection, schedule: Q01DX009 (ip), vehicle: other): 6 of 6
T/C (dose: 0.2 mg/kg/injection, schedule: Q01DX Z (ip), vehicle: saline): 128 % of control
T/C (dose: 0.2 mg/kg/injection, schedule: Q04DX002 (ip), vehicle: saline): 130 % of control
T/C (dose: 0.3 mg/kg/injection, schedule: Q01DX Z (ip), vehicle: saline): 130 % of control
T/C (dose: 0.37 mg/kg/injection, schedule: Q01DX001 (ip), vehicle: other): 125 % of control
survivor count (dose: 0.4 mg/kg/injection, schedule: Q01DX009 (ip), vehicle: other): 6 of 6
survivor count (dose: 0.4 mg/kg/injection, schedule: Q04DX002 (ip), vehicle: saline): 2 of 3
survivor count (dose: 0.75 mg/kg/injection, schedule: Q01DX015 (ip), vehicle: water): 5 of 6
survivor count (dose: 0.8 mg/kg/injection, schedule: Q01DX009 (ip), vehicle: other): 6 of 6
survivor count (dose: 1.0 mg/kg/injection, schedule: Q01DX001 (ip), vehicle: carboxymethylcellulose (CMC)): 4 of 4
survivor count (dose: 1.0 mg/kg/injection, schedule: Q01DX009 (ip), vehicle: saline): 4 of 6 and 5 of 6
survivor count (dose: 1.0 mg/kg/injection, schedule: Q01DX015 (ip), vehicle: water): 6 of 6
survivor count (dose: 1.56 mg/kg/injection, schedule: Q04DX002 (ip), vehicle: saline): 3 of 3
survivor count (dose: 1.6 mg/kg/injection, schedule: Q01DX Z (ip), vehicle: alkali diluted with CMC): 4 of 6 and 6 of 6
survivor count (dose: 2.0 mg/kg/injection, schedule: Q01DX009 (ip), vehicle: saline): 0 of 6
survivor count (dose: 3.0 mg/kg/injection, schedule: Q01DX001 (ip), vehicle: saline): 0 of 6
survivor count (dose: 3.13 mg/kg/injection, schedule: Q04DX002 (ip), vehicle: saline): 1 of 3
survivor count (dose: 4.0 mg/kg/injection, schedule: Q01DX001 (ip), vehicle: carboxymethylcellulose (CMC)): 1 of 4
survivor count (dose: 5.0 mg/kg/injection, schedule: Q01DX001 (ip), vehicle: carboxymethylcellulose (CMC)): 0 of 4
survivor count (dose: 6.0 mg/kg/injection, schedule: Q01DX001 (ip), vehicle: saline): 0 of 6
survivor count (dose: 6.25 mg/kg/injection, schedule: Q04DX002 (ip), vehicle: saline): 0 of 3
survivor count (dose: 8.0 mg/kg/injection, schedule: Q01DX001 (ip), vehicle: carboxymethylcellulose (CMC)): 0 of 4
survivor count (dose: 10.0 mg/kg/injection, schedule: Q01DX001 (ip), vehicle: carboxymethylcellulose (CMC)): 0 of 4
survivor count (dose: 12.0 mg/kg/injection, schedule: Q01DX001 (ip), vehicle: saline): 0 of 6
survivor count (dose: 12.5 mg/kg/injection, schedule: Q04DX002 (ip), vehicle: saline): 3 of 3
survivor count (dose: 20.0 mg/kg/injection, schedule: Q01DX001 (ip), vehicle: carboxymethylcellulose (CMC)): 0 of 4
survivor count (dose: 20.0 mg/kg/injection, schedule: Q01DX001 (oral), vehicle: water): 3 of 4
survivor count (dose: 24.0 mg/kg/injection, schedule: Q01DX001 (ip), vehicle: saline): 0 of 6
survivor count (dose: 25.0 mg/kg/injection, schedule: Q04DX002 (ip), vehicle: saline): 1 of 3
survivor count (dose: 40.0 mg/kg/injection, schedule: Q01DX001 (ip), vehicle: carboxymethylcellulose (CMC)): 0 of 4
survivor count (dose: 50.0 mg/kg/injection, schedule: Q04DX002 (ip), vehicle: saline): 0 of 3
survivor count (dose: 80.0 mg/kg/injection, schedule: Q01DX001 (ip), vehicle: carboxymethylcellulose (CMC)): 0 of 4
survivor count (dose: 100.0 mg/kg/injection, schedule: Q01DX001 (ip), vehicle: carboxymethylcellulose (CMC)): 0 of 4
survivor count (dose: 100.0 mg/kg/injection, schedule: Q04DX002 (ip), vehicle: saline): 0 of 3
survivor count (dose: 200.0 mg/kg/injection, schedule: Q01DX001 (ip), vehicle: carboxymethylcellulose (CMC)): 0 of 4
survivor count (dose: 200.0 mg/kg/injection, schedule: Q04DX002 (ip), vehicle: saline): 0 of 3
survivor count (dose: 400.0 mg/kg/injection, schedule: Q01DX001 (ip), vehicle: carboxymethylcellulose (CMC)): 0 of 4
survivor count (dose: 400.0 mg/kg/injection, schedule: Q04DX002 (ip), vehicle: saline): 0 of 3

CCOC(=O)C(N)Cc1ccc(OC)c(N(CCCl)CCCl)c1 (stereo unspecified)
T/C (dose: 0.73 mg/kg/injection, schedule: Q01DX009 (ip), vehicle: carboxymethylcellulose (CMC)): 148 % of control
T/C (dose: 2.6 mg/kg/injection, schedule: Q01DX001 (ip), vehicle: carboxymethylcellulose (CMC)): 129 % of control
T/C (dose: 4.0 mg/kg/injection, schedule: Q01DX001 (ip), vehicle: carboxymethylcellulose (CMC), evaluated on day 30): 137 % of control
T/C (dose: 4.0 mg/kg/injection, schedule: Q01DX001 (ip), vehicle: carboxymethylcellulose (CMC), run until all animals had died): 132 % of control
T/C (dose: 6.0 mg/kg/injection, schedule: Q01DX001 (ip), vehicle: carboxymethylcellulose (CMC), evaluated on day 30): 142 % of control
T/C (dose: 6.0 mg/kg/injection, schedule: Q01DX001 (ip), vehicle: carboxymethylcellulose (CMC), run until all animals had died): 130 % of control (2×)
survivor count (dose: 6.0 mg/kg/injection, schedule: Q01DX009 (ip), vehicle: carboxymethylcellulose (CMC)): 2 of 6
T/C (dose: 9.0 mg/kg/injection, schedule: Q01DX001 (ip), vehicle: carboxymethylcellulose (CMC)): 138 % of control
survivor count (dose: 12.5 mg/kg/injection, schedule: Q01DX001 (ip), vehicle: carboxymethylcellulose (CMC)): 0 of 6
survivor count (dose: 25.0 mg/kg/injection, schedule: Q01DX001 (ip), vehicle: carboxymethylcellulose (CMC)): 0 of 6
survivor count (dose: 50.0 mg/kg/injection, schedule: Q01DX001 (ip), vehicle: carboxymethylcellulose (CMC)): 0 of 6

COC(=O)C1=C2Nc3ccccc3C23CCN2CC4(CC5CC67CCOC6CCN6CCC8(c9cccc(OC)c9N(C4)C58O)C67)C4OCCC4(C1)C23 (stereo unspecified)
T/C (dose: 100.0 mg/kg/injection, schedule: Q04DX003 (ip), vehicle: Klucel (hydroxypropylcellulose) (HPC)): 128 % of control

O=C(NC1CCCCC1)c1csnn1
survivor count (dose: 300.0 mg/kg/injection, schedule: Q01DX001 (ip), vehicle: other): 3 of 6

CN=C(NC)c1ccc(NC(=O)Nc2ccc(NC(=O)Nc3ccc(C(=NC)NC)cc3)cc2)cc1
T/C (dose: 13.0 mg/kg/injection, schedule: Q01DX Z (ip), vehicle: carboxymethylcellulose (CMC)): 125 % of control
T/C (dose: 13.3 mg/kg/injection, schedule: Q01DX Z (ip), vehicle: saline): 125 and 131 % of control
T/C (dose: 20.0 mg/kg/injection, schedule: Q01DX Z (ip), vehicle: carboxymethylcellulose (CMC)): 128 % of control
T/C (dose: 20.0 mg/kg/injection, schedule: Q01DX Z (ip), vehicle: saline): 134 % of control
T/C (dose: 30.0 mg/kg/injection, schedule: Q01DX Z (ip), vehicle: saline): 129 % of control
survivor count (dose: 45.0 mg/kg/injection, schedule: Q01DX Z (ip), vehicle: carboxymethylcellulose (CMC)): 5 of 6

CN(C)[C@@H]1C(=O)C(C(=O)NCN2CCN(C(=N)N=C(N)N)CC2)=C(O)[C@@]2(O)C(=O)C3=C(O)c4c(O)cccc4[C@@](C)(O)[C@H]3C[C@@H]12
survivor count (dose: 9.37 mg/kg/injection, schedule: Q01DX001 (ip), vehicle: saline): 0 of 6
survivor count (dose: 18.75 mg/kg/injection, schedule: Q01DX001 (ip), vehicle: saline): 0 of 6
survivor count (dose: 37.5 mg/kg/injection, schedule: Q01DX001 (ip), vehicle: saline): 0 of 6

Cc1ccc2c(N=Nc3ccc(N(C)C)cc3)cccc2n1
survivor count (dose: 100.0 mg/kg/injection, schedule: Q01DX009 (ip), vehicle: saline with Tween-80): 6 of 6
survivor count (dose: 200.0 mg/kg/injection, schedule: Q01DX009 (ip), vehicle: saline with Tween-80): 6 of 6
survivor count (dose: 400.0 mg/kg/injection, schedule: Q01DX009 (ip), vehicle: saline with Tween-80): 0 of 6

O=C(O)c1cc([N+](=O)[O-])ccc1P(=O)(O)O
survivor count (dose: 300.0 mg/kg/injection, schedule: Q01DX001 (ip), vehicle: saline): 3 of 6

Cc1c(CCO)sc[n+]1Cc1cccc([N+](=O)[O-])c1
survivor count (dose: 200.0 mg/kg/injection, schedule: Q01DX001 (ip), vehicle: saline): 0 of 6
survivor count (dose: 400.0 mg/kg/injection, schedule: Q01DX001 (ip), vehicle: saline): 0 of 6
